These are yes or no findings as the source states them, for the method shown. Binding seen in cells or lysates may run through a third protein. A result given as binding can be weak or reduced; the word gives no strength.

Amino acid sequences for entries named in this document (tags omitted). A change or cut given only in a name is not applied to a line headed by its entry.
UniProt P78536: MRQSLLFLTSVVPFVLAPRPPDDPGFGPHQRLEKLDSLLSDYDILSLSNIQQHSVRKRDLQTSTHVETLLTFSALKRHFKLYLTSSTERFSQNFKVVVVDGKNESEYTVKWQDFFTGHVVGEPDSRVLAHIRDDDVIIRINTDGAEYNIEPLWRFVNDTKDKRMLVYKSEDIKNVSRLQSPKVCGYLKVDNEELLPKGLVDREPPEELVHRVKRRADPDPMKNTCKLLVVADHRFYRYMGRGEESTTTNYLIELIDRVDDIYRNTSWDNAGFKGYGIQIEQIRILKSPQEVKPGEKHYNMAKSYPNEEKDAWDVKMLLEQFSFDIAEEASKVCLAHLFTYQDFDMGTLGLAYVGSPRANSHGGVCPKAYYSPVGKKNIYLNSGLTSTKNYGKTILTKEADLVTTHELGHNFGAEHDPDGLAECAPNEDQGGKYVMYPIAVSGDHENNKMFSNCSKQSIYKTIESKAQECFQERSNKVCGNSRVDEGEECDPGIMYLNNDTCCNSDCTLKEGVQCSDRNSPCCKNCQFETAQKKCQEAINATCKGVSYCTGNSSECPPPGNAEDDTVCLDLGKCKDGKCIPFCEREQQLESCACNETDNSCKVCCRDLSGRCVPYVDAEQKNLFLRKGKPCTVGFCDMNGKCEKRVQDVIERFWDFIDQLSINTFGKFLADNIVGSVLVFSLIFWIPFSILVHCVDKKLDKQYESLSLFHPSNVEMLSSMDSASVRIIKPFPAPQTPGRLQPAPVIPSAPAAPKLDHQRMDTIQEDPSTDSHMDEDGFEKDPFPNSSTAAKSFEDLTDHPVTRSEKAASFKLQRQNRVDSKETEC

The test has as its target 2xFlag-ADAM17 (UniProt P78536). As to the kind of experiment: co-IP; 293T cells cotransfected with pcDNA-2xHA-CD82 and pcDNA-2xFlag-ADAM17, harvested after 72 hours; lysis in 50 mM Tris-HCl pH 7.4, 150 mM NaCl, 1 mM EDTA, 1% Triton X-100; primary antibody overnight at 4°C, protein A or G agarose beads, Western blot. For orientation: In western blotting, separated proteins are transferred to a membrane and probed.

B1: 2xHA-CD82 (protein, UniProt P27701 1-267)
chain: MGSACIKVTKYFLFLFNLIFFILGAVILGFGVWILADKSSFISVLQTSSSSLRMGAYVFIGVGAVTMLMGFLGCIGAVNEVRCLLGLYFAFLLLILIAQVTAGALFYFNMGKLKQEMGGIVTELIRDYNSSREDSLQDAWDYVQAQVKCCGWVSFYNWTDNAELMNRPEVTYPCSCEVKGEEDNSLSVRKGFCEAPGNRTQSGNHPEDWPVYQEGCMEKVQAWLQENLGIILGVGVGVAIIELLGMVLSICLCRHVHSEDYSKVPKY
Regarding B1, the binding entry is on record as “binds”.

For the origin of these results see PMC7654213.
